Measured values reported in paper PMC9992712.
Results are given in words; binding and its absence hold for the method and conditions named. Some entries that bind do so weakly or less than the wild type.

Sequences of proteins named here, by UniProt entry; tags and fusion partners are left off. A change or cut given only in a name is not applied to a line headed by its entry.
UniProt P07251: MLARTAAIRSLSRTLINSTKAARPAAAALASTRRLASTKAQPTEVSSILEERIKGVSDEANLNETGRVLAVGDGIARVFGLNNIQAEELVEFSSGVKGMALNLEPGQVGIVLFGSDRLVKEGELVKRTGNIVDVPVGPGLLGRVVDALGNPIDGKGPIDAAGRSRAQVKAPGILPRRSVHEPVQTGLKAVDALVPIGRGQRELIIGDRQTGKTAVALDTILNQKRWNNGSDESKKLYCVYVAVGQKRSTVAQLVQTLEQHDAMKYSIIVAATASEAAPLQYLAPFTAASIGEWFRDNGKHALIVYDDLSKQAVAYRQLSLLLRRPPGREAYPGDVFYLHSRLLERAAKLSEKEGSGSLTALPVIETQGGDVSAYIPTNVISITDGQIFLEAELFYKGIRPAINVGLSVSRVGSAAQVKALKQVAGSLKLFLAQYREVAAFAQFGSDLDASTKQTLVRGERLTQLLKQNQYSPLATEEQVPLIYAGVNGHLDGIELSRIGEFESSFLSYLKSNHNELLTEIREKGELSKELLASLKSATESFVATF

B1: chaperonin Hsp10 (protein, UniProt P38910 1-106)
chain: MSTLLKSAKSIVPLMDRVLVQRIKAQAKTASGLYLPEKNVEKLNQAEVVAVGPGFTDANGNKVVPQVKVGDQVLIPQFGGSTIKLGNDDEVILFRDAEILAKIAKD
B2: ATP synthase subunit g/Atp20 (protein, UniProt Q12233 1-115)
chain: MLSRIQNYTSGLVSKANLLSSKALYYGKVGAEISKQIYLKEGLQPPTVAQFKSVYSNLYKQSLNFALKPTEVLSCLKNIQKNELLKYGAYGIQLIGFYSVGEIIGRRKLVGYKHH
B3: MICOS component Mic10 (protein, UniProt Q96VH5 1-97)
chain: MSEQAQTQQPAKSTPSKDSNKNGSSVSTILDTKWDIVLSNMLVKTAMGFGVGVFTSVLFFKRRAFPVWLGIGFGVGRGYAEGDAIFRSSAGLRSSKV
B4: Mco10 (Mitochondrial class one protein of 10 kDa) (protein, UniProt Q3E824 1-90)
chain: MGAAYKVFGKTVQPHVLAISTFIATAAVASYFTTKPKTKNEGKNSSALSQQKSGESSNSDAMGKDDDVVKSIEGFLNDLEKDTRQDTKAN
B5: ATP synthase subunit e/Atp21 (protein, UniProt P81449 1-96)
chain: MSTVNVLRYSALGLGLFFGFRNDMILKCNAKKKEEQAQYEEKLKLVEEAKKEYAKLHPVVTPKDVPANASFNLEDPNIDFERVILNAVESLKEAST

Molecular target: S. cerevisiae ATP synthase monomer (S. cerevisiae) (UniProt P07251)
Test: native gel or EMSA; 2D BN-PAGE/SDS-PAGE with mass spectrometry: S. cerevisiae mitochondria extracted with 2% digitonin, monomers and dimers separated on 3-12% BN-PAGE, resolved on 16% SDS-PAGE, 5-20 kDa region of each analysed by LC/MS

| binding | Binder |
| --- | --- |
| binds | B1 |
| binds | B2 |
| binds | B3 |
| binds | B4 |
| binds | B5 |

Molecular target: S. cerevisiae ATP synthase dimer (S. cerevisiae) (UniProt P07251)
Test: as above

| binding | Binder |
| --- | --- |
| binds | B1 |
| binds | B2 |
| binds | B3 |
| binds | B4 |
| binds | B5 |

Molecular target: S. cerevisiae ATP synthase monomer (S. cerevisiae) (UniProt P07251)
Test: native gel or EMSA; 2D BN-PAGE/SDS-PAGE with Western blot: digitonin extracts of mitochondria from wild type, Δatp19, Δatp20, Δatp21 and Δmco10 strains; monomer and dimer lanes probed with anti-Mco10 and anti-Atp19 antibodies

| binding | Binder |
| --- | --- |
| binds | B4 |

Molecular target: S. cerevisiae ATP synthase dimer (S. cerevisiae) (UniProt P07251)
Test: as above

| binding | Binder |
| --- | --- |
| binds weakly | B4 |
